Like-named read-outs stand apart in the source and are kept apart here. At least one structure is not confirmed: it was looked up by name or label, or the drawing left a doubt.
Tests used:
phthalyl amidase = phthalyl amidase (Xanthobacter agilis, UniProt P0C2Y0); experiment: Substrate specificity of phthalyl amidase (Tables 9-11); assay type: biochemical
Experimental: the activity of phthalyl amidase against 25 compounds was determined. The compounds were divided into beta-lactams (Table 9), phthalyl amides (Table 10), and aromatic ring substituted amides (Table 11). Each reaction mixture (1 ml total volume) contained 2.5 μmol of compound and 0.3 units of enzyme (based on the chromogenic substrate) of the preparative scale purified enzyme, in 50 mM phosphate buffer, pH 8.0. The reactions were conducted at 30° C. Samples of the reaction mixture were taken at various times, and methanol (equal value) was added to stop the reaction. The samples were examined by HPLC to determine the extent of substrate hydrolysis. The amount of compound hydrolyzed was calculated from a standard curve of the test compound. All substrates were stable in buffer at 30° C. and pH 8.0 in the absence of enzyme for 24 hours.

Chains of the proteins cited; added tags and fusions are not shown. Residues count along the entry.
UniProt P0C2Y0, 2-453: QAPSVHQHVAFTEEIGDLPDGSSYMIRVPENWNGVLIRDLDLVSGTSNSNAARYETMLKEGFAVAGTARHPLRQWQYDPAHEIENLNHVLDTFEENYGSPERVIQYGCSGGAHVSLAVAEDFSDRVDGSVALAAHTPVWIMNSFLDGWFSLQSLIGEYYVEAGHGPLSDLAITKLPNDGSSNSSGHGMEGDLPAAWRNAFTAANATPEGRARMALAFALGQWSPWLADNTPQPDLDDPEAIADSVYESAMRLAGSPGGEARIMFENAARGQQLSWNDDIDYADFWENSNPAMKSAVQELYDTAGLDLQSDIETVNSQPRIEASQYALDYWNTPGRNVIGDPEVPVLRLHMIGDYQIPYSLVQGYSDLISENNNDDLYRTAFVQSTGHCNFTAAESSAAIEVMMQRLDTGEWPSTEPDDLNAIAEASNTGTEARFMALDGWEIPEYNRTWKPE

[1] = Stability of substrates in buffer without enzyme; assay type: physicochemical; conditions: pH 8.0

| Compound | acceptance as substrate of the enzyme (phthalyl amidase) | Relative Activity (phthalyl amidase; Table 10, phthalyl amides, 30° C., pH 8.0) | acceptance as substrate of the enzyme (phthalyl amidase; listed as mono-methyl phthalate) | hydrolysis in buffer [1] |
| --- | --- | --- | --- | --- |
| COC(=O)c1ccccc1C(=O)O [IX, phthalate mono methyl ester] | exhibited esterase activity | 207.6 | removes the methyl group | – |
| O=C(O)C1=C(Cl)CCC2C(N3C(=O)c4ccccc4C3=O)C(=O)N12 (stereo not shown) [XXXIII, Phthalimido carbacephem] | – | – | – | readily hydrolyzes |

From US5607850A, “Enzyme from microbial source: phthalyl amidase” (Eli Lilly and Company, priority 1995, dated 1997)
